Data from article PMC6637647.
These are yes or no findings as the source states them, for the method shown. In cells and extracts the contact can be indirect. Some entries that bind do so weakly or less than the wild type.

The chains behind the UniProt entries cited, without tags or fusion partners.
UniProt Q9UPY3: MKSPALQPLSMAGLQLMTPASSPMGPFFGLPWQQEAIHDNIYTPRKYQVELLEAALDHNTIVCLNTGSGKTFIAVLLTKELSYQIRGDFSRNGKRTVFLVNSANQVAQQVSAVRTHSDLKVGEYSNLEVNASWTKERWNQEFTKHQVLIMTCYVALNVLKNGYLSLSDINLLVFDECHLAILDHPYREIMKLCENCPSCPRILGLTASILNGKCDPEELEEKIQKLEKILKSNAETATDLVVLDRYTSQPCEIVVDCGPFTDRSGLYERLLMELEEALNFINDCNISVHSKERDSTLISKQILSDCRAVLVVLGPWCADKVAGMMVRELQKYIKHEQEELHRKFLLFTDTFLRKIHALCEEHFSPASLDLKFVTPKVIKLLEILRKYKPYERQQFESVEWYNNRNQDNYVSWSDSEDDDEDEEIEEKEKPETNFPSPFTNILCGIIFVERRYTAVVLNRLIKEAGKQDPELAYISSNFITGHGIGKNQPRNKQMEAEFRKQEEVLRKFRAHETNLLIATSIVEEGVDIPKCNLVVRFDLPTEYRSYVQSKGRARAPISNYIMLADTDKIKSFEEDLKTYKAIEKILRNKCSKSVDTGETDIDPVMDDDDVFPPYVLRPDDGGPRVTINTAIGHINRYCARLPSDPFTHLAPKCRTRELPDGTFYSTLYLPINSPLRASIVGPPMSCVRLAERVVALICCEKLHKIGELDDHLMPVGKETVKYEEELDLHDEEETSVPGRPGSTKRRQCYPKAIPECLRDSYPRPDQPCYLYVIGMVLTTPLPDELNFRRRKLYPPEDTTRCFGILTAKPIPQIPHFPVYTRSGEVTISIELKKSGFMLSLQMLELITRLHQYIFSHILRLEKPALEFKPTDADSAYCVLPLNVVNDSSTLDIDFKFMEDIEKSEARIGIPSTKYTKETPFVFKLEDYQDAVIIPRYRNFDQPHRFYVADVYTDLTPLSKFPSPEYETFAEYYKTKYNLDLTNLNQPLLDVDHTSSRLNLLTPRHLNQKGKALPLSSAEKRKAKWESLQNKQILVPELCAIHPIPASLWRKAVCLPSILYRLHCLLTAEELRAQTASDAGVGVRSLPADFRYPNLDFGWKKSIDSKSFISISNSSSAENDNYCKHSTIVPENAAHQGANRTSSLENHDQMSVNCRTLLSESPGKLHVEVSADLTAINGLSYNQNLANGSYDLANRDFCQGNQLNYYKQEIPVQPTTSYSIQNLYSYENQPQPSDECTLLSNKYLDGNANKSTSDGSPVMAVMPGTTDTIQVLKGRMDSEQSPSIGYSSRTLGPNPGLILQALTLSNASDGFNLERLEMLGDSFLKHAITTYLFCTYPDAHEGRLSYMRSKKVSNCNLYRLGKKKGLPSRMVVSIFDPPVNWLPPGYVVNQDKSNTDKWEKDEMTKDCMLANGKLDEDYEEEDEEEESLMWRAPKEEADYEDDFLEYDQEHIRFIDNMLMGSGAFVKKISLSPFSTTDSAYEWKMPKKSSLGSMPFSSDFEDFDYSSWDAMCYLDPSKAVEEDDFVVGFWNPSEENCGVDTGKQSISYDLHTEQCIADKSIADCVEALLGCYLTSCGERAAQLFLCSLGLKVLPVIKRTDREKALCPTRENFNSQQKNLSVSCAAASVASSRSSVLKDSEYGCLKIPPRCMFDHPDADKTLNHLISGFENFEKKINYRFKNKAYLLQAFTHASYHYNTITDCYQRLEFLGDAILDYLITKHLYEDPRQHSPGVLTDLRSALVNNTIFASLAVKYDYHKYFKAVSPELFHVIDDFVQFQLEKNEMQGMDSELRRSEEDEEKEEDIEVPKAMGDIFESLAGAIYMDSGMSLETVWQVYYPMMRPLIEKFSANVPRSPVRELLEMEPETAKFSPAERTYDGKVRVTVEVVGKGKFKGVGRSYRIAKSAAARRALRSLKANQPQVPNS

Molecular target: Dicer (human (endogenous in Cal27)) (UniProt Q9UPY3)
Assay: co-IP; Cal27 cell lysates (sonication; 50 mM Tris-HCl pH 7.5, 130 mM NaCl, 1% Nonidet P-40, 0.5% sodium deoxycholate) incubated with normal rabbit IgG, anti-ADAR1, anti-Dicer, anti-Drosha, anti-Argonaute1, anti-Argonaute2 or anti-TRBP antibodies and Protein A/G PLUS-Agarose beads at 4 °C overnight; western blot

- binding: binds
B1: ADAR1 (adenosine deaminase acting on RNA 1) (protein, UniProt P55265-5 1-931)
chain: MAEIKEKICDYLFNVSDSSALNLAKNIGLTKARDINAVLIDMERQGDVYRQGTTPPIWHLTDKKRERMQIKRNTNSVPETAPAAIPETKRNAEFLTCNIPTSNASNNMVTTEKVENGQEPVIKLENRQEARPEPARLKPPVHYNGPSKAGYVDFENGQWATDDIPDDLNSIRAAPGEFRAIMEMPSFYSHGLPRCSPYKKLTECQLKNPISGLLEYAQFASQTCEFNMIEQSGPPHEPRFKFQVVINGREFPPAEAGSKKVAKQDAAMKAMTILLEEAKAKDSGKSEESSHYSTEKESEKTAESQTPTPSATSFFSGKSPVTTLLECMHKLGNSCEFRLLSKEGPAHEPKFQYCVAVGAQTFPSVSAPSKKVAKQMAAEEAMKALHGEATNSMASDNQPEGMISESLDNLESMMPNKVRKIGELVRYLNTNPVGGLLEYARSHGFAAEFKLVDQSGPPHEPKFVYQAKVGGRWFPAVCAHSKKQGKQEAADAALRVLIGENEKAERMGFTEVTPVTGASLRRTMLLLSRSPEAQPKTLPLTGSTFHDQIAMLSHRCFNTLTNSFQPSLLGRKILAAIIMKKDSEDMGVVVSLGTGNRCVKGDSLSLKGETVNDCHAEIISRRGFIRFLYSELMKYNSQTAKDSIFEPAKGGEKLQIKKTVSFHLYISTAPCGDGALFDKSCSDRAMESTESRHYPVFENPKQGKLRTKVENGEGTIPVESSDIVPTWDGIRLGERLRTMSCSDKILRWNVLGLQGALLTHFLQPIYLKSVTLGYLFSQGHLTRAICCRVTRDGSAFEDGLRHPFIVNHPKVGRVSIYDSKRQSGKTKETSVNWCLADGYDLEILDGTRGTVDGPRNELSRVSKKNIFLLFKKLCSFRYRRDLLRLSYGEAKKAARDYETAKNYFKKGLKDMGYGNWISKPQEEKNFYLCPV
